Laboratory results published in paper doi:10.1101/2025.02.28.640727.
These are yes or no findings as the source states them, for the method shown. In cells and extracts the contact can be indirect. Some entries that bind do so weakly or less than the wild type. For some assays here: Tags and fused reporters may be left off the sequences shown.

T1: TMK INTeractor 6 (TINT6; Clavata3 Insensitive Receptor Kinase 4, CIK4), pUBQ10::TINT6-3xHA (Arabidopsis thaliana) (UniProt C0LGU5)
T1 sequence: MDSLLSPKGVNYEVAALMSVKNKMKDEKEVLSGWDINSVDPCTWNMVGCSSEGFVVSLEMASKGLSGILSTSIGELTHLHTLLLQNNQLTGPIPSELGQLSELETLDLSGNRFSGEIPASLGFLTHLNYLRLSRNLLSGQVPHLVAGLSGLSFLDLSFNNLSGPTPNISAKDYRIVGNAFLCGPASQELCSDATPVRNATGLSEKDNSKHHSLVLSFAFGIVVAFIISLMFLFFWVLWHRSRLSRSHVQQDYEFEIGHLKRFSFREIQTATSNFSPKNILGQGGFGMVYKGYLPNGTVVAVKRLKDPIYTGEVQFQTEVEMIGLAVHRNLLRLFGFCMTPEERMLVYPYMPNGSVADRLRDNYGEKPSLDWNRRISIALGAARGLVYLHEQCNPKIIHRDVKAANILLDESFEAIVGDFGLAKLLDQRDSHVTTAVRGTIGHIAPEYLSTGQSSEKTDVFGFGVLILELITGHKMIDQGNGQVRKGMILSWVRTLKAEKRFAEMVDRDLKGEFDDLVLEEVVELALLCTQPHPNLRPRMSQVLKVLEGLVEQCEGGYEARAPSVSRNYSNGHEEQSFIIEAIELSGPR


Tests used:
[1] = molecular target: T1, TMK INTeractor 6 (TINT6; Clavata3 Insensitive Receptor Kinase 4, CIK4), pUBQ10::TINT6-3xHA (Arabidopsis thaliana); assay: co-IP
[2] = molecular target: Transmembrane Kinase 1 (TMK1), p35S::TMK1-SCFP3A^N (Arabidopsis thaliana) (UniProt P43298); assay: split reporter

Row | binding [1] | binding [2] | Binder
1 | binds |  | Transmembrane Kinase 1 (TMK1), FLAG-tagged (receptor, UniProt P43298 24-942) DSDGDLSAMLSLKKSLNPPSSFGWSDPDPCKWTHIVCTGTKRVTRIQIGHSGLQGTLSPDLRNLSELERLELQWNNISGPVPSLSGLASLQVLMLSNNNFDSIPSDVFQGLTSLQSVEIDNNPFKSWEIPESLRNASALQNFSANSANVSGSLPGFLGPDEFPGLSILHLAFNNLEGELPMSLAGSQVQSLWLNGQKLTGDITVLQNMTGLKEVWLHSNKFSGPLPDFSGLKELESLSLRDNSFTGPVPASLLSLESLKVVNLTNNHLQGPVPVFKSSVSVDLDKDSNSFCLSSPGECDPRVKSLLLIASSFDYPPRLAESWKGNDPCTNWIGIACSNGNITVISLEKMELTGTISPEFGAIKSLQRIILGINNLTGMIPQELTTLPNLKTLDVSSNKLFGKVPGFRSNVVVNTNGNPDIGKDKSSLSSPGSSSPSGGSGSGINGDKDRRGMKSSTFIGIIVGSVLGGLLSIFLIGLLVFCWYKKRQKRFSGSESSNAVVVHPRHSGSDNESVKITVAGSSVSVGGISDTYTLPGTSEVGDNIQMVEAGNMLISIQVLRSVTNNFSSDNILGSGGFGVVYKGELHDGTKIAVKRMENGVIAGKGFAEFKSEIAVLTKVRHRHLVTLLGYCLDGNEKLLVYEYMPQGTLSRHLFEWSEEGLKPLLWKQRLTLALDVARGVEYLHGLAHQSFIHRDLKPSNILLGDDMRAKVADFGLVRLAPEGKGSIETRIAGTFGYLAPEYAVTGRVTTKVDVYSFGVILMELITGRKSLDESQPEESIHLVSWFKRMYINKEASFKKAIDTTIDLDEETLASVHTVAELAGHCCAREPYQRPDMGHAVNILSSLVELWKPSDQNPEDIYGIDLDMSLPQALKKWQAYEGRSDLESSTSSLLPSLDNTQMSIPTRPYGFAESFTSVDGR
2 |  | binds | Transmembrane Kinase 1 (TMK1), p35S::TMK1-SCFP3A^N (receptor, UniProt P43298 24-942) DSDGDLSAMLSLKKSLNPPSSFGWSDPDPCKWTHIVCTGTKRVTRIQIGHSGLQGTLSPDLRNLSELERLELQWNNISGPVPSLSGLASLQVLMLSNNNFDSIPSDVFQGLTSLQSVEIDNNPFKSWEIPESLRNASALQNFSANSANVSGSLPGFLGPDEFPGLSILHLAFNNLEGELPMSLAGSQVQSLWLNGQKLTGDITVLQNMTGLKEVWLHSNKFSGPLPDFSGLKELESLSLRDNSFTGPVPASLLSLESLKVVNLTNNHLQGPVPVFKSSVSVDLDKDSNSFCLSSPGECDPRVKSLLLIASSFDYPPRLAESWKGNDPCTNWIGIACSNGNITVISLEKMELTGTISPEFGAIKSLQRIILGINNLTGMIPQELTTLPNLKTLDVSSNKLFGKVPGFRSNVVVNTNGNPDIGKDKSSLSSPGSSSPSGGSGSGINGDKDRRGMKSSTFIGIIVGSVLGGLLSIFLIGLLVFCWYKKRQKRFSGSESSNAVVVHPRHSGSDNESVKITVAGSSVSVGGISDTYTLPGTSEVGDNIQMVEAGNMLISIQVLRSVTNNFSSDNILGSGGFGVVYKGELHDGTKIAVKRMENGVIAGKGFAEFKSEIAVLTKVRHRHLVTLLGYCLDGNEKLLVYEYMPQGTLSRHLFEWSEEGLKPLLWKQRLTLALDVARGVEYLHGLAHQSFIHRDLKPSNILLGDDMRAKVADFGLVRLAPEGKGSIETRIAGTFGYLAPEYAVTGRVTTKVDVYSFGVILMELITGRKSLDESQPEESIHLVSWFKRMYINKEASFKKAIDTTIDLDEETLASVHTVAELAGHCCAREPYQRPDMGHAVNILSSLVELWKPSDQNPEDIYGIDLDMSLPQALKKWQAYEGRSDLESSTSSLLPSLDNTQMSIPTRPYGFAESFTSVDGR
